Tested on: CD1 female mouse brain lipidome
Assay: Brain-region lipid levels (HPLC/MS/MS lipidomics) 2 h after single i.p. 3 mg/kg CP 55,940 vs vehicle
Format: in vivo
Procedure: The Bloomington Institutional Animal Care and Use Committee of Indiana University reviewed and approved the animal procedures. Female mice from the CD1 strain were utilized to match our study examining THC’s effects on the brain lipidome ([Leishman et al., 2018]). Mice were given a single i.p. injection of either 3 mg/kg CP or 1:1:18 cremophor:ethanol:saline vehicle (please refer to the section “3 mg/kg CP Is Relevant for Synthetic Cannabinoid Abuse and Has Stronger Effects on the Female Mouse Brain Lipidome During Adolescence” for a justification of dose and use of female mice). Three different age groups were given injections: PND 35 and PND 50 adolescents, and adult mice (PND 113). At least eight mice in each age group received CP and at least eight received vehicle. Matching the THC study time course ([Leishman et al., 2018]), mice were sacrificed via rapid decapitation 2 h after injection. Brains were immediately removed and flash-frozen in liquid nitrogen, and then stored at -80°C until dissections were performed. Brains were dissected on an ice-cold dissection plate into the following regions: STR, HIPP, CER, THAL, CTX, HYP, MID, and STEM. These abbreviations for these brain areas will be used exclusively when discussing the results generated by these specific dissections. Each dissected area was immediately placed in liquid nitrogen and then stored at -80°C until used for lipid extraction.
Tissue extracts were performed as previously described ([Bradshaw et al., 2006]; [Stuart et al., 2013]; [Raboune et al., 2014]; [Leishman et al., 2016a],[b], [2017], [2018]). First, samples were shock frozen in liquid nitrogen, weighed, and transferred to a centrifuge tube. The mass of the largest sample was multiplied by 50 to determine how many milliliters of HPLC-grade methanol (Fisher, Fair Lawn, NJ, United States) to add. Then, samples were spiked with 500 pmol deuterium-labeled NAGly (d8NAGly; Cayman Chemical, Ann Arbor, MI, United States). Samples were placed on ice in darkness for 2 h then individually homogenized and centrifuged at 19,000 × g for 20 min at 20°C. Supernatants were diluted with HPLC water (purified in house) to make a solution of 75% water, 25% supernatant. Lipids were partially purified on C18 solid phase extraction columns (Agilent, Palo Alto, CA, United States). A series of four elutions with 1.5 mL of 60%, 75%, 85%, and 100% methanol were collected ([Stuart et al., 2013]; [Leishman et al., 2016a],[b], [2018]).
As previously described ([Bradshaw et al., 2006]; [Tan et al., 2006]; [Smoum et al., 2010]; [Stuart et al., 2013]; [Tortoriello et al., 2013]; [Raboune et al., 2014]; [Leishman et al., 2016a],[b], [2017], [2018]), samples were analyzed using an Applied Biosystems API 3000 triple quadrupole mass spectrometer with electrospray ionization (Foster City, CA, United States). Using an Agilent XDB-C18 reversed phase analytical column and optimized mobile phase gradients, 20 μL from each elution were chromatographed. Two Shimadzu 10ADvp pumps (Columbia, MD, United States) provided the pressure for gradient elution. Mobile phase A: 20% methanol, 80% water (v/v) and 1 mM ammonium acetate (Sigma, St. Louis, MO, United States). Mobile phase B: 100% methanol, 1 mM ammonium acetate. Every method run began with 0% mobile phase B, reached 100% mobile phase B flowing at 0.2 mL/min, and gradually returned to 0% mobile phase B.
This screening library will be referred to as the lipidome when discussing data from this study. HPLC/MS/MS data were analyzed using Analyst software (Applied Biosystems) ([Bradshaw et al., 2006]; [Tan et al., 2006]; [Stuart et al., 2013]; [Tortoriello et al., 2013]; [Raboune et al., 2014]; [Leishman et al., 2016a],[b], [2017], [2018]). Chromatograms (Supplementary Figure 3) were generated by determining the retention time of analytes from the analytical column with a [M-1] or [M+1] parent peak and a fragmentation peak corresponding to the programmed values. […]

[1] = adult female mice, brainstem, 3mg/kg CP 55,940
[2] = cortex, PND 35 adolescent female mice, 3 mg/kg CP 55,940
[3] = thalamus, PND 35 adolescent female mice, 3 mg/kg CP 55,940

CCCCCCC(C)(C)c1ccc([C@@H]2C[C@H](O)CC[C@H]2CCCO)c(O)c1 [CP 55,940]
BDL: 11-OH-THC level, Mean [1] | 11-nor-9-carboxyTHC level, Mean [1] | Cannabidiol level, Mean [1] | THC level, Mean [1] | 11-OH-THC level, Mean [2] | 11-nor-9-carboxyTHC level, Mean [2] | Cannabidiol level, Mean [2] | THC level, Mean [2] | 11-OH-THC level, Mean [3] | 11-nor-9-carboxyTHC level, Mean [3] | Cannabidiol level, Mean [3] | THC level, Mean [3]
